In patent publication US20030162221A1:
Results are given in words; binding and its absence hold for the method and conditions named. Binding seen in cells or lysates may run through a third protein. Some results given as binding are weak or reduced against the parent protein; the word gives no strength. Sequences can lack the tags named with a protein.

What was measured:
[1] = molecular target: T1, Rfc1 (Saccharomyces cerevisiae) (UniProt P38630); test: anti-FLAG co-IP, LC-MS/MS
T1 sequence (looked up): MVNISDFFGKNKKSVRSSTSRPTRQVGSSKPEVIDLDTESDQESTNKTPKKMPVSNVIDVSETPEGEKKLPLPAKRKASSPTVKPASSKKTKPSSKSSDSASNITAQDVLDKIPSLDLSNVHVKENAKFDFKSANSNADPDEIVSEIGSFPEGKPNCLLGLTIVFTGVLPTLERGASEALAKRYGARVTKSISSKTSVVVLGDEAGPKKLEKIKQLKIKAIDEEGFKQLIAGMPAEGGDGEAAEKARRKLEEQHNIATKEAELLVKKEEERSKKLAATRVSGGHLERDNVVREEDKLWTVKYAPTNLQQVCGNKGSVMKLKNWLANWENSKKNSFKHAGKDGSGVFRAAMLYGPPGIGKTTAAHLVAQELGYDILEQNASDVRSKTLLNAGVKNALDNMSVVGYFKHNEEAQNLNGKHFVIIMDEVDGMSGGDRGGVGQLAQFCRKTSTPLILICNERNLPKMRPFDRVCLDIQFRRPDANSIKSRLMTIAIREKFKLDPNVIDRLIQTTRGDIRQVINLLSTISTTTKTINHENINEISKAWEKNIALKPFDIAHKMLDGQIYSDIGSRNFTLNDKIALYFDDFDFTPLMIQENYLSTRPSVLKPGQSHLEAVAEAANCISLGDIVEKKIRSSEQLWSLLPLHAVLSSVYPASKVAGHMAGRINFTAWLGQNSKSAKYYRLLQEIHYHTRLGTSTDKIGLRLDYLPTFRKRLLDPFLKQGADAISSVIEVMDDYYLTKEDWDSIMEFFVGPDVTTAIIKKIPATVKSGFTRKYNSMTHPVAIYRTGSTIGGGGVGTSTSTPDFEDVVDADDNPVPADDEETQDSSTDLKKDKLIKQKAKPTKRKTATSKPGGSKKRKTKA

[2] = molecular target: T2, Rfc2 (Saccharomyces cerevisiae) (UniProt P40348); test: anti-FLAG co-IP, LC-MS/MS
T2 sequence (looked up): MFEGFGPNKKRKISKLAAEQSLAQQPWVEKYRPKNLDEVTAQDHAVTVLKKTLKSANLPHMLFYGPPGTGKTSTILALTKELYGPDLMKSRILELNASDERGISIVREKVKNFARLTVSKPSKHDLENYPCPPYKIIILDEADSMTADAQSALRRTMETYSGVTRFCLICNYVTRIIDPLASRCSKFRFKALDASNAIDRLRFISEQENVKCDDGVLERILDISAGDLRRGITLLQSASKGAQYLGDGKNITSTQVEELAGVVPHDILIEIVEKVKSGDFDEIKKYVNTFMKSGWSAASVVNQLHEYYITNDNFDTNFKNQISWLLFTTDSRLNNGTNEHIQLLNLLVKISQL

[3] = molecular target: T1, Rfc1 (Saccharomyces cerevisiae); test: anti-FLAG co-IP, LC-MS/MS; pair by Table 2

Measured: binding

B1: Rfc4 (protein, Saccharomyces cerevisiae, UniProt P40339 1-323, looked up)
chain: MSKTLSLQLPWVEKYRPQVLSDIVGNKETIDRLQQIAKDGNMPHMIISGMPGIGKTTSVHCLAHELLGRSYADGVLELNASDDRGIDVVRNQIKHFAQKKLHLPPGKHKIVILDEADSMTAGAQQALRRTMELYSNSTRFAFACNQSNKIIEPLQSRCAILRYSKLSDEDVLKRLLQIIKLEDVKYTNDGLEAIIFTAEGDMRQAINNLQSTVAGHGLVNADNVFKIVDSPHPLIVKKMLLASNLEDSIQILRTDLWKKGYSSIDIVTTSFRVTKNLAQVKESVRLEMIKEIGLTHMRILEGVGTYLQLASMLAKIHKLNNKA
binds: all assays above
